Positions count from the first letter of the chain named. No constants are given. Whether binding was seen depends on the method and setting. In cells and extracts the contact can be indirect. Some entries that bind do so weakly or less than the wild type. For some assays here: Where a sequence is shown, tags or fusion partners need not be part of it.

Amino acid sequences for entries named in this document (tags omitted).
UniProt Q96NG5: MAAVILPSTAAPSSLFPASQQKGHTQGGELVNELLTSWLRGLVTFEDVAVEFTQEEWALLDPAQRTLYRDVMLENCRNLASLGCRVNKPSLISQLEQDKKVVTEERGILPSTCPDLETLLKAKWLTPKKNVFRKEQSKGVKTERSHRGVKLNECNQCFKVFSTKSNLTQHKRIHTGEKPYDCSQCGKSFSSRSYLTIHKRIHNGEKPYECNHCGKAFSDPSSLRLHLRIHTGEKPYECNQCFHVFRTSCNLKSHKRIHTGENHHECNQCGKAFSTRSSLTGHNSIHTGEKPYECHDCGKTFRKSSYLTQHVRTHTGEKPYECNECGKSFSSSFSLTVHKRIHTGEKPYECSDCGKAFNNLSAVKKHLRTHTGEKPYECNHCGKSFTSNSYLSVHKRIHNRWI
UniProt A8K8V0: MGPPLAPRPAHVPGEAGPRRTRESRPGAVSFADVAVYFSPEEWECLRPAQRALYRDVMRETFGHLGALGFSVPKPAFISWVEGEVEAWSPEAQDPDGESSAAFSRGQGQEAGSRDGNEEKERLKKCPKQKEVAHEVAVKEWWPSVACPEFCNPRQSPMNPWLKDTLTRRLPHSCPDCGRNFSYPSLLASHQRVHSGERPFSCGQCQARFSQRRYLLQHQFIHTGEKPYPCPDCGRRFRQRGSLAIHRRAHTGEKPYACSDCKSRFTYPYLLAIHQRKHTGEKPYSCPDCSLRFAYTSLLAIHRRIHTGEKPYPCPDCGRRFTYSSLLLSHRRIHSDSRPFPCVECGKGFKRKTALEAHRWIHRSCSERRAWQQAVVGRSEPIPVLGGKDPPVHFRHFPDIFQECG
UniProt P59923: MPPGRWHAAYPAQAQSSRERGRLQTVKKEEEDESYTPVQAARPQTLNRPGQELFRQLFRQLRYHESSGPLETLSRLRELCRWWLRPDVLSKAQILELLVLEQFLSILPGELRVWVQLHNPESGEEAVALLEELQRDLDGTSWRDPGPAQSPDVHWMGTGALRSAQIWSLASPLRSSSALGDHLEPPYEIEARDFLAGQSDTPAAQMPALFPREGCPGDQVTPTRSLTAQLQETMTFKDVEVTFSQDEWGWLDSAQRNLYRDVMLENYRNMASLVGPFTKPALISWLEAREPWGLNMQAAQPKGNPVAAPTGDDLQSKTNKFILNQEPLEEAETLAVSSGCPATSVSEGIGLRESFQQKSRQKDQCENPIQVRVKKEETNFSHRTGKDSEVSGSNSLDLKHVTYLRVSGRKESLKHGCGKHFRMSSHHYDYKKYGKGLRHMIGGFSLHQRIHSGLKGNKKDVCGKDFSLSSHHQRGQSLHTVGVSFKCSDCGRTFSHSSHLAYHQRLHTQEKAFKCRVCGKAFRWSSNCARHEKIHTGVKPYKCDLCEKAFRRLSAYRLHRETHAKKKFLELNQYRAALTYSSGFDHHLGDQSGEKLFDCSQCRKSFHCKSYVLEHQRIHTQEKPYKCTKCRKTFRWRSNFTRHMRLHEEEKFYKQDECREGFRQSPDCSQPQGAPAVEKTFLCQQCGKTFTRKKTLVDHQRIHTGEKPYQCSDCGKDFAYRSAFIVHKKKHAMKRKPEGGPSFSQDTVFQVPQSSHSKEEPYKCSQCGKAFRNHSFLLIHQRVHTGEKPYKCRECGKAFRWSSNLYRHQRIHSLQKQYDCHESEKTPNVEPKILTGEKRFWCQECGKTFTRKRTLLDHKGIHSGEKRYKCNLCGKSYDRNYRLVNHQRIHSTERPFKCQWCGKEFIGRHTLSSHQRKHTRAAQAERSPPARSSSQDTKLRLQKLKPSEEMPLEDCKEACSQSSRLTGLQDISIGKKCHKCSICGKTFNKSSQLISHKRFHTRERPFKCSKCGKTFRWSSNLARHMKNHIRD

Assay [1] concerns the target T1, HA-tagged human TRIM28-K304Q (human) (UniProt Q13263).
T1 sequence: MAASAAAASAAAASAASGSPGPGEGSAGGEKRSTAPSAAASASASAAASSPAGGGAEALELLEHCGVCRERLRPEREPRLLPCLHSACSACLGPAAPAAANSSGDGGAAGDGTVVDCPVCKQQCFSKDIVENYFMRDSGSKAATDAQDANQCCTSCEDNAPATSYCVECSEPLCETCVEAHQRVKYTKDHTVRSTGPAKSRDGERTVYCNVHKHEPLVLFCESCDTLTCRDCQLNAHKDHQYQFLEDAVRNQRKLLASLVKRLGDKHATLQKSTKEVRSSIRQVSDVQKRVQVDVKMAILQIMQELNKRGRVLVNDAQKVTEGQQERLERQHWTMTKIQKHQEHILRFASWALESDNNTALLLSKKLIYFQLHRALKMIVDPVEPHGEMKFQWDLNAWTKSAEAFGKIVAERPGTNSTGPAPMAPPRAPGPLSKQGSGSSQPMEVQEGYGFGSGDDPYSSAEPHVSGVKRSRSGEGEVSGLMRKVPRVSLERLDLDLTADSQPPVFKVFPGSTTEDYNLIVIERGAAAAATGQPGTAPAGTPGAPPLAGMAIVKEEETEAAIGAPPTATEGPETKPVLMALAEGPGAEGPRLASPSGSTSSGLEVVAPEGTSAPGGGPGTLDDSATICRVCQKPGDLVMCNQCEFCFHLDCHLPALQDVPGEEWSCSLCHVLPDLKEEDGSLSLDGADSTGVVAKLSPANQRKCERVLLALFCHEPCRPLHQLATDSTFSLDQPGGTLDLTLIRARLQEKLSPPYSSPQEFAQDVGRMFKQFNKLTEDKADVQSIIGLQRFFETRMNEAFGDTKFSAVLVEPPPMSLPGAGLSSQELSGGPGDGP
Description: co-IP; HA-tagged human TRIM28 (WT, K304Q, K304R) cotransfected with Myc-DDK-tagged ZNF558 or ZNF785; TRIM28-KO cells by the text, HEK293T cells by the legend; three independent experiments.

Assay [2] deals with HA-tagged human TRIM28 wild-type (human) (UniProt Q13263). Described as above.
Assay [3] deals with T2, HA-tagged human TRIM28-K304R (human) (UniProt Q13263).
T2 sequence: T1 sequence with Q304R
The description is as above.

In assay [4] the target is wild-type TRIM28 (endogenous, K562 cells) (human (endogenous in K562)) (UniProt Q13263). Description: co-IP; endogenous proteins in wild-type, TRIM28-K304Q KI and TRIM28-KO K562 cells; precipitated by anti-TRIM28-N, Western blotted with anti-ZNF445. On the technique in general: Immunoblotting shows a protein as a band on a membrane.
The target of assay [5] is T3, TRIM28-K304Q (endogenous, knock-in K562 clone Q1) (human (endogenous in K562)) (UniProt Q13263).
T3 sequence: T1 sequence
The description is as above.

As to “Myc-DDK-tagged ZNF558 (from UniProt Q96NG5 1-402)”, the binding entry in assay [1] is “binds weakly”; in assay [2] it was “binds”; in assay [3], “binds”.
Consider “Myc-DDK-tagged ZNF785 (from UniProt A8K8V0 1-405)”, for which the binding result in assay [1], in assay [2] and in assay [3] was “binds” each time.
For the substance ZNF445 (from UniProt P59923 1-1031), the binding entry is “binds” in assay [4] and “binds weakly” in assay [5].

(Values after paper PMC10298087.)
